The source of these data is PubChem BioAssay AID1347426 (Functional Genomics Laboratory (NCATS/FGL), 2020).

Out of some 31,000 sequences screened, about 1,400 (4.5%) were called active.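 Rule for the calls: active = median seed-adjusted z-score above 1 or below -1; inactive = the rest.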 The list shows a part of the results.

The assay can be described thus: Novel Modifiers of Survival Motor Neuron (SMN) Protein: Gene Identification via Genome-wide siRNA Screen.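 Note: luminescence tracks full-length SMN protein made from the SMN2 reporter.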 The settings on record: HEK293T SMN2-luciferase reporter, siRNA knockdown, 72 h; actives lie on both sides. In outline: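 HEK293T cells stably carrying an SMN2 promoter/splicing cassette–luciferase reporter were reverse-transfected with 1 pmol siRNA per well (druggable-genome library, 3 siRNAs per gene) and grown 72 h at 37 °C. Luminescence, normalized to negative-control siRNA and log10-transformed, was scored as MAD.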
(A reporter such as luciferase makes a cellular process visible.)
For the sequence GAGCUUCCGUAGUAGAGCATT against ZNF225, the median seed-adjusted z-score is inactive: 0.0761.

CGCUGCUGGUCAUCAAGAUTT against PTGES: the median seed-adjusted z-score was inactive: -0.0851.

On to GAAUGUACUAAGUAUGGAATT against ZNF630, for which the median seed-adjusted z-score was inactive: -0.533.

With GGACUGCCCUCAUAUGAAATT against ELMO1, the median seed-adjusted z-score was inactive: -0.00404.

In the case of CAUCCACACUUCUCCAGAATT against HK1, the median seed-adjusted z-score was inactive: -0.129.

As for CCAACUCCAUGUCCGAUGATT against ITGB4, the median seed-adjusted z-score is inactive: -0.226.

Turning to GCUGGACCCUUAUUACCGATT against MTMR3, the median seed-adjusted z-score was inactive: 0.281.

Regarding CCUUGUUCAGUCUAGAGGATT against CLCN6, the median seed-adjusted z-score was inactive: -0.136.

AGACACCUCGGAUAACGAATT against HOXC10: the median seed-adjusted z-score is inactive: 0.000966.

Regarding CCAGCUUAGUUCAAUAUGATT against GABRA4, the median seed-adjusted z-score is inactive: 0.549.

For GCUCGUAGUUGGGAUAACATT against FRAP1, the median seed-adjusted z-score is active: -1.02.

As to UGACCAAGUUUGAGGCUAATT against NAT9, the median seed-adjusted z-score was inactive: -0.657.

For the sequence GGCGGGAUGUGAUGACUAUTT against STYK1, the median seed-adjusted z-score was inactive: 0.106.

With GCAAUUAAUUCACUAAGCUTT against HS3ST3B1, the median seed-adjusted z-score was inactive: 0.937.

GGACUCUUGUAGAUAAUGATT against RSPRY1: the median seed-adjusted z-score is inactive: 0.0814.

Consider GAACUUUCCUAGGUGAUUATT against PEMT, for which the median seed-adjusted z-score was inactive: 0.0218.

On to AAUUAAAGGAGAUCCACUATT against ALDH3B2, for which the median seed-adjusted z-score is inactive: 0.171.

In the case of GGAUAGAAUAUGAUACCUUTT against FH, the median seed-adjusted z-score is inactive: 0.182.

In the case of GGAGUUCGAUGAGACAACATT against FABP3, the median seed-adjusted z-score is inactive: -0.0786.

In the case of GCAGCAAACUGACGGAGAATT against PCTK3, the median seed-adjusted z-score is inactive: 0.

As to CCAGAUCAUCUGGACCAUATT against PDCD2, the median seed-adjusted z-score is inactive: -0.232.

As for GCUCCUCAGUUGAUCAAGATT against DKC1, the median seed-adjusted z-score is inactive: -0.203.

On to GCCCAGCAGAUAAUCCAUUTT against GTF2H4, for which the median seed-adjusted z-score was inactive: -0.261.

Take CAACAGAUGUUAGCCCUUUTT against ZNF75D: the median seed-adjusted z-score is inactive: 0.

With GAGAAGCAGCAGUACAUGATT against HMG20B, the median seed-adjusted z-score was inactive: 0.231.

As for CGAUGUGGUUCGAGGCUAUTT against B9D1, the median seed-adjusted z-score was inactive: -0.161.

Take CCAUCUACGUCAUCUAUAATT against SLC6A2: the median seed-adjusted z-score was inactive: 0.

With GGAUAGGUGCCUUUCGUCATT against TLR3, the median seed-adjusted z-score is inactive: 0.0615.

In the case of UGAUCUUCAUCGUCAAGGATT against MCM5, the median seed-adjusted z-score was inactive: 0.126.

CCAAGUCAUUCUCACCUAATT against ATP6V1G2: the median seed-adjusted z-score is inactive: -0.664.

Turning to GAACCUCCUUCGGGAUAAATT against CAB39L, the median seed-adjusted z-score is inactive: 0.

With GGGUAAUCCUCCCAAAUCATT against CDH2, the median seed-adjusted z-score is inactive: -0.235.

On to GAGUUGCAAUUGUCAUAUATT against ADAM20, for which the median seed-adjusted z-score was inactive: 0.0167.

In the case of GGAGGCUUCGAUGAAGAAATT against ASIP, the median seed-adjusted z-score was inactive: -0.23.

Turning to GCAGAAGUGGGAGCGAAAATT against PRSS23, the median seed-adjusted z-score is inactive: -0.77.

Consider GGGCGAAUACGUGACGAUATT against BEST4, for which the median seed-adjusted z-score is inactive: -0.207.

As to GGACCUGCAUAUGAAAGUATT against PCDH8, the median seed-adjusted z-score was active: -1.03.

On to CGAUAUCAAGUGCACCAAATT against CAD, for which the median seed-adjusted z-score was active: 2.37.

For GCAUCACCAUUGCUUGGAATT against STAT5B, the median seed-adjusted z-score was inactive: 0.

CCGCGACAAGCAUAACGAATT against B4GALT2: the median seed-adjusted z-score is inactive: -0.0367.

With GGGUUACCCUGGUCAUUAATT against ZNHIT2, the median seed-adjusted z-score was inactive: -0.339.

For the sequence GCCUAGGAGUUAUCCUCUATT against MARK2, the median seed-adjusted z-score is inactive: 0.664.

For AGUUACCUACGUCAACCUATT against LRIT1, the median seed-adjusted z-score was inactive: -0.611.

Regarding AGCUAGUACUAAUGAAUUUTT against KCNC2, the median seed-adjusted z-score is inactive: 0.3.

GCAAAGAUGUUGAGAAGGATT against ZNF549: the median seed-adjusted z-score is inactive: 0.0114.

In the case of GGAUUGGGCUAAGAAGUAUTT against CYP46A1, the median seed-adjusted z-score was inactive: -0.00752.

Regarding GGGUUAUAGAUCAAAAGAATT against OLA1, the median seed-adjusted z-score was inactive: -0.408.

With GUAGGACCCUAAUAUCGAUTT against TEP1, the median seed-adjusted z-score was inactive: -0.495.

Regarding GGACAUGCAGCAGACCUAUTT against ZC3H7B, the median seed-adjusted z-score is inactive: -0.093.

Regarding AGAUAAAUGCCGACCCACATT against CDK5R1, the median seed-adjusted z-score is inactive: 0.373.

As for CAGUACUACGUGAAACUGATT against BAT1, the median seed-adjusted z-score is active: -1.49.

Consider ACGGCGACUUUGUCAGGUATT against SOLH, for which the median seed-adjusted z-score is inactive: -0.791.

With CGAGCGCGUAUUAACGAGATT against HES4, the median seed-adjusted z-score was inactive: 0.705.

On to CGACCGCUGUAAGGAGGUATT against MAP1LC3A, for which the median seed-adjusted z-score is inactive: 0.

As to GUAACAAAAUUGAUCUGGATT against RIT2, the median seed-adjusted z-score is inactive: 0.253.

Consider GGCUGAUUACGUUCGGGAATT against MYL2, for which the median seed-adjusted z-score was inactive: -0.0369.

For GAACUGUGCCUAUUCCGAATT against LIG3, the median seed-adjusted z-score was inactive: -0.0498.

As to GGCUAACCAGCGAAAUAUATT against DNMT3L, the median seed-adjusted z-score was inactive: 0.0651.

Turning to GCUUCCACGUGUUCGACCATT against HSF1, the median seed-adjusted z-score is inactive: 0.

On to CCUAUUCACUUCUCAUGCATT against FCGR2B, for which the median seed-adjusted z-score was inactive: -0.163.

In the case of GCAAAGCUGCUGAGUAAUATT against TIPIN, the median seed-adjusted z-score is inactive: 0.

On to GGAAAGUUCGAUUACAACATT against ACOT12, for which the median seed-adjusted z-score is inactive: 0.0741.

As to CCAUAAUGCUACAAACUCUTT against CCNT2, the median seed-adjusted z-score was inactive: -0.836.

Regarding GGGCAAAUAGAUUCGAGUATT against SMARCA5, the median seed-adjusted z-score was inactive: -0.0804.

For the sequence CCCUUACACCAAUACCGCATT against IMP4, the median seed-adjusted z-score is inactive: -0.359.

For GACUGUCACUCAACGAAGATT against DNAJB9, the median seed-adjusted z-score was inactive: 0.0962.

Turning to GGAAGCAACUUCCAUAAAATT against QTRTD1, the median seed-adjusted z-score is inactive: 0.377.

For CCUAUGACGUGAACAGAGATT against ITIH3, the median seed-adjusted z-score is inactive: 0.

For the sequence GGCCCUUCAUCGAUAGCUATT against APEX2, the median seed-adjusted z-score is inactive: -0.347.

Regarding GCAUAGAUAGCACCGUGAATT against SLC20A1, the median seed-adjusted z-score was inactive: -0.186.

On to CGCUCAUGGACUUCGCCUATT against ZBTB7A, for which the median seed-adjusted z-score is inactive: -0.344.

On to CGAGCUCAUGAAUAGAGUUTT against ANGPTL5, for which the median seed-adjusted z-score was inactive: 0.

Consider CCCUAUUGAUGGACAAGUUTT against ZSWIM2, for which the median seed-adjusted z-score is inactive: -0.199.

Consider GGAUGCCCUUUUCAUCGAATT against PPID, for which the median seed-adjusted z-score is inactive: -0.206.

As to GAUCCGCACGUGAAAACAATT against TCEB3C, the median seed-adjusted z-score is inactive: 0.382.

With CAAAGCGAAUUGAUCUUUATT against GLRB, the median seed-adjusted z-score is inactive: 0.0713.

As for GCCUAAACCUCAGCAGAUATT against ETHE1, the median seed-adjusted z-score is inactive: 0.

For GGCAUUUGGUCGAAGUUCATT against ZNF229, the median seed-adjusted z-score is inactive: -0.497.

With CCACAGUUCCUGUCAUGUUTT against ACMSD, the median seed-adjusted z-score was inactive: 0.

For GCUAUUGGAUGAACUCCCATT against PHCA, the median seed-adjusted z-score is inactive: 0.0568.

In the case of GGCAGAAUGUUUCGAGCUUTT against LCN10, the median seed-adjusted z-score is inactive: 0.

With GUGAUUGCUUUAUACCGAATT against USP28, the median seed-adjusted z-score was inactive: 0.275.

On to GCAGAAUUAAGUCAAACAATT against ZBTB37, for which the median seed-adjusted z-score is inactive: -0.219.

For CUACGACUAUCGAAGCAUUTT against RPGR, the median seed-adjusted z-score is inactive: 0.1.

Regarding CAUUCGCCGUUACCUGCCATT against POLR2F, the median seed-adjusted z-score was active: -3.52.

Regarding CCAUGGAGCUUUGUGAAGATT against CES1, the median seed-adjusted z-score was inactive: -0.536.

With GGAUACUAGUAACUGGUCUTT against PARD3, the median seed-adjusted z-score is inactive: -0.116.

In the case of CUAGUAUAUUCACCGUCUATT against NALCN, the median seed-adjusted z-score was inactive: -0.266.

With CUAUAGUAACUGUCUAGGATT against RCBTB1, the median seed-adjusted z-score is inactive: 0.

Turning to GGGCCUUAAUUUGUACUGUTT against KLF2, the median seed-adjusted z-score is inactive: 0.359.

For the sequence GACCUUACCUCAGACUAGATT against EXOG, the median seed-adjusted z-score was inactive: 0.746.

Consider GGAUCCAGGUGAAUGAUCUTT against PPP1R9B, for which the median seed-adjusted z-score was inactive: -0.244.

For GGACUCCAGCAUUUGCUUATT against SCG5, the median seed-adjusted z-score is inactive: 0.573.

Take CCACACUGUUUUCUACGAATT against TARS2: the median seed-adjusted z-score is inactive: -0.0143.

For GGCGGUAAACCAGAACUAATT against PCDHA12, the median seed-adjusted z-score was inactive: 0.0761.

Take AGACUUCCGCUACACUUUUTT against ADORA2B: the median seed-adjusted z-score was inactive: -0.471.

As to CCGUGAACCCAGAACAGUATT against PIP4K2A, the median seed-adjusted z-score is inactive: 0.469.

For GGAAGAGCUAGAGAAGUUUTT against VPS16, the median seed-adjusted z-score is inactive: 0.306.

As for CCUGGACGAGUUUAUAAUATT against AP1S3, the median seed-adjusted z-score was inactive: 0.153.

GCCGCUUUCCUGACGAGAATT against PPIF: the median seed-adjusted z-score was inactive: 0.0719.

Consider AGCCCAUGAUUAAUUUGUATT against FUS, for which the median seed-adjusted z-score is inactive: 0.92.

Take GCCUUUUGCUGCGCACCAATT against CD151: the median seed-adjusted z-score is inactive: -0.0305.

As for GGUUAAAGUCUGCAACUAATT against USP1, the median seed-adjusted z-score is inactive: -0.564.

Take UUGUUAACAUGAAAACUCATT against GTPBP8: the median seed-adjusted z-score was inactive: 0.834.

For CGUGUGAUCCAGAGACUUATT against KRT1, the median seed-adjusted z-score is inactive: -0.362.

For GUACGUGACUGGUUACAAUTT against FLRT3, the median seed-adjusted z-score was inactive: -0.468.

Turning to CUCCUGUUUUGGUACCCAATT against FLVCR2, the median seed-adjusted z-score is inactive: -0.336.

For CGGUGACCAAGAUUACCAATT against MBD3, the median seed-adjusted z-score is inactive: 0.708.
